Results are given in words; binding and its absence hold for the method and conditions named. Binding can be weak; no strength is given.

Three molecules from publication PMC3406077 (2012) can be followed below.

First the molecules themselves.
B1: pallilysin (C24-P237) active site mutant AEXXH (H198A) (enzyme, UniProt O83732 24-237)
chain: CFQHGHVPPRRIPPHDTFGALPTAALPSNARDTAAHPSDTADNTSGSSTTTDPRSHGNAPPAPVGGAAQTHTQPPVQTAMRIALWNRATHGEQGALQHLLAGLWIQTEISPNSGDIHPLLFFDREHAEITFSRASVQEIFLVDSAHTHRKTVSFLTRNTAISSIRRRLEVTFESAEVIHVRAVEDVARLKIGSTSMWDGQYTRYHAGPASAPSP
B2: pallilysin (C24-P237) active site mutant HAXXH (E199A) (enzyme, UniProt O83732 24-237)
chain: CFQHGHVPPRRIPPHDTFGALPTAALPSNARDTAAHPSDTADNTSGSSTTTDPRSHGNAPPAPVGGAAQTHTQPPVQTAMRIALWNRATHGEQGALQHLLAGLWIQTEISPNSGDIHPLLFFDREHAEITFSRASVQEIFLVDSAHTHRKTVSFLTRNTAISSIRRRLEVTFESHAVIHVRAVEDVARLKIGSTSMWDGQYTRYHAGPASAPSP
B3: pallilysin (C24-P237) active site mutant HEXXA (H202A) (enzyme, UniProt O83732 24-237)
chain: CFQHGHVPPRRIPPHDTFGALPTAALPSNARDTAAHPSDTADNTSGSSTTTDPRSHGNAPPAPVGGAAQTHTQPPVQTAMRIALWNRATHGEQGALQHLLAGLWIQTEISPNSGDIHPLLFFDREHAEITFSRASVQEIFLVDSAHTHRKTVSFLTRNTAISSIRRRLEVTFESHEVIAVRAVEDVARLKIGSTSMWDGQYTRYHAGPASAPSP

This assay addresses plasminogen-depleted human fibrinogen (human). The assay can be described thus: ELISA; fibrinogen or laminin immobilised (0.5 µg per well, Greiner plates); recombinant pallilysin 1-20 µg per well (mutants 20 µg per well) diluted in TBS; washes with TBS-0.1% Tween 20; adherent protein detected with anti-pallilysin rabbit serum and HRP goat anti-rabbit IgG, read at 492 nm; both …. (In an ELISA, binding on a coated surface is turned into a signal by an enzyme label.)
Take B1: the binding entry was “binds”.
With B2, the binding result is “binds”.
The same measure for B3: “binds”.
